PubChem BioAssay AID1259254 – NCATS – 2017
Aim: 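Finding genes that stop cells copying their DNA twice in one cycle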 (primary screen). System: human HCT116 colorectal cancer cells. Reagent: single siRNA against human genes. Timing: 3 days. Read-out: 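Imaged Hoechst DNA stain sorts each cell into a cycle phase by DNA amount; per plate, G2 fraction set to 0% for non-targeting and 100% for GMNN siRNA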. Direction: G2 robust z-score and G2 cells, % of GMNN control: higher = more G2 cells, more excess DNA replication. Active means: 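Active siRNAs have a G2 robust z of 5 or more median absolute deviations over the median, which in these data means about 38% or higher of GMNN control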.
The whole screen tested about 59,000 reagents; this is a random part of them. Of all reagents, about 1,550 (2.6%) are marked active. 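G2 share is only a proxy for re-replication; each gene was hit by three separate siRNAs, and active genes were retested.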 Entries without a mark were called inactive. The numbers tell different reagents against one gene apart. Further read-outs or replicates are left out here. Not given: the amount of reagent.

PON1 (paraoxonase 1) #1
- G2 robust z-score: 0.469
- G2 cells, % of GMNN control: 6.27

PON1 (paraoxonase 1) #2
- G2 robust z-score: -1.4
- G2 cells, % of GMNN control: -6.9

PON1 (paraoxonase 1) #3
- G2 robust z-score: 0.538
- G2 cells, % of GMNN control: 6.75

RAC3 (Rac family small GTPase 3) #1
- G2 robust z-score: 3.87
- G2 cells, % of GMNN control: 30.2

RAC3 (Rac family small GTPase 3) #2
- G2 robust z-score: -0.236
- G2 cells, % of GMNN control: 1.31

RAC3 (Rac family small GTPase 3) #3
- G2 robust z-score: -0.284
- G2 cells, % of GMNN control: 0.966

ZBTB48 (zinc finger and BTB domain containing 48) #1
- G2 robust z-score: -0.405
- G2 cells, % of GMNN control: 0.121

ZBTB48 (zinc finger and BTB domain containing 48) #2
- G2 robust z-score: -0.734
- G2 cells, % of GMNN control: -2.2

ZBTB48 (zinc finger and BTB domain containing 48) #3
- G2 robust z-score: -0.771
- G2 cells, % of GMNN control: -2.46

CLDN22 (claudin 22) #1
- G2 robust z-score: -0.598
- G2 cells, % of GMNN control: -1.24

CLDN22 (claudin 22) #2
- G2 robust z-score: -0.672
- G2 cells, % of GMNN control: -1.76

CLDN22 (claudin 22) #3
- G2 robust z-score: -0.23
- G2 cells, % of GMNN control: 1.35

Already shown: 4 of the entries above.
ZBTB48 (zinc finger and BTB domain containing 48) #1
- G2 robust z-score: -0.405
- G2 cells, % of GMNN control: 0.121

ZBTB48 (zinc finger and BTB domain containing 48) #2
- G2 robust z-score: -0.734
- G2 cells, % of GMNN control: -2.2

ZBTB48 (zinc finger and BTB domain containing 48) #3
- G2 robust z-score: -0.771
- G2 cells, % of GMNN control: -2.46

CLDN22 (claudin 22) #1
- G2 robust z-score: -0.598
- G2 cells, % of GMNN control: -1.24

More entries follow:
SPATA31J1 (SPATA31 subfamily J member 1) #1
- G2 robust z-score: -0.181
- G2 cells, % of GMNN control: 1.69

SPATA31J1 (SPATA31 subfamily J member 1) #2
- G2 robust z-score: -0.112
- G2 cells, % of GMNN control: 2.18

SPATA31J1 (SPATA31 subfamily J member 1) #3
- G2 robust z-score: -0.666
- G2 cells, % of GMNN control: -1.72

SPATA31J1 (SPATA31 subfamily J member 1) #4
- G2 robust z-score: 2.7
- G2 cells, % of GMNN control: 22

SPATA31J1 (SPATA31 subfamily J member 1) #5
- G2 robust z-score: 4.76
- G2 cells, % of GMNN control: 36.5

SPATA31J1 (SPATA31 subfamily J member 1) #6
- G2 robust z-score: 5.81 (active)
- G2 cells, % of GMNN control: 43.9

SPATA2 (spermatogenesis associated 2) #1
- G2 robust z-score: 4.25
- G2 cells, % of GMNN control: 32.9

SPATA2 (spermatogenesis associated 2) #2
- G2 robust z-score: 1.34
- G2 cells, % of GMNN control: 12.4

SPATA2 (spermatogenesis associated 2) #3
- G2 robust z-score: 2.01
- G2 cells, % of GMNN control: 17.1

POLA1 (DNA polymerase alpha 1, catalytic subunit) #1
- G2 robust z-score: -0.271
- G2 cells, % of GMNN control: 1.06

POLA1 (DNA polymerase alpha 1, catalytic subunit) #2
- G2 robust z-score: 1.99
- G2 cells, % of GMNN control: 17

POLA1 (DNA polymerase alpha 1, catalytic subunit) #3
- G2 robust z-score: -0.697
- G2 cells, % of GMNN control: -1.94

IBSP (integrin binding sialoprotein) #1
- G2 robust z-score: 0.859
- G2 cells, % of GMNN control: 9.01

IBSP (integrin binding sialoprotein) #2
- G2 robust z-score: -0.569
- G2 cells, % of GMNN control: -1.03

IBSP (integrin binding sialoprotein) #3
- G2 robust z-score: 2.32
- G2 cells, % of GMNN control: 19.3

ANKRD13C (ankyrin repeat domain 13C) #1
- G2 robust z-score: -0.342
- G2 cells, % of GMNN control: 0.561

ANKRD13C (ankyrin repeat domain 13C) #2
- G2 robust z-score: -0.148
- G2 cells, % of GMNN control: 1.92

ANKRD13C (ankyrin repeat domain 13C) #3
- G2 robust z-score: -0.6
- G2 cells, % of GMNN control: -1.26
